Values joined by “and” are separate entries in the source; they are usually repeats but may differ in a detail not shown here. Equal entries are not always repeated. Strings that start with PEPTIDE1 are HELM notation: dots part the residues, brackets hold end groups and non-standard residues.
Experiment: general procedure: Fmoc solid-phase peptide synthesis; preloaded Tentagel S AC resins (Rapp Polymere)
Conditions: for conjugation yield: conjugation step

Substance	crude yield (whole synthesis)	conjugation yield	also measured
Ac-CSFWSSEWVSDDISFTWRYQPEGGR-NH2			outcome (whole synthesis): The synthesis of P0_21–45 failed repeatedly
Ac-DEVGTFKERIQWVGDPRWKDGSIVIC-NH2	22%		
Ac-GSIVIHNLDYSDNGTFTCDVKNPPD-NH2			crude yield (whole synthesis, Par20): 85%; crude yield (whole synthesis, run 1): 56%
Ac-KNPPDIVGKTSQVTLYVFEKVPTRYC(Cy5)-NH2		59% isolated yield and 9% isolated yield	
Ac-KNPPDIVGKTSQVTLYVFEKVPTRYC-NH2			crude yield (whole synthesis, Par20): 50%; crude yield (whole synthesis, run 1): 14%
Ac-PEGGRDAISIFHYAKGQPYIDEVGTC-NH2	41%		
Ac-TFTADVKNPPDIVGKTSQVTLYVFEKC-NH2	57%		difficulty met (whole synthesis): The synthesis of P0_21–45 failed repeatedly, meaning this peptide was excluded from further evaluation.
H-IVVYTDREVHGAVGSRVTLHCSFWS-NH2	52%		
PEPTIDE1{I.V.V.Y.T.D.R.E.V.H.G.A.V.G.S.R.V.T.L.H.C.S.F.W.S.[am]}|CHEM1{[MalCy5S3]}$PEPTIDE1,CHEM1,21:R3-1:R1$$$V2.0		3% isolated yield	
PEPTIDE1{[ac].D.E.V.G.T.F.K.E.R.I.Q.W.V.G.D.P.R.W.K.D.G.S.I.V.I.C.[am]}|CHEM1{[MalCy5S3]}$PEPTIDE1,CHEM1,27:R3-1:R1$$$V2.0		5% isolated yield	
PEPTIDE1{[ac].G.S.I.V.I.H.N.L.D.Y.S.D.N.G.T.F.T.C.D.V.K.N.P.P.D.[am]}|CHEM1{[MalCy5S3]}$PEPTIDE1,CHEM1,19:R3-1:R1$$$V2.0		35% isolated yield	
PEPTIDE1{[ac].P.E.G.G.R.D.A.I.S.I.F.H.Y.A.K.G.Q.P.Y.I.D.E.V.G.T.C.[am]}|CHEM1{[MalCy5S3]}$PEPTIDE1,CHEM1,27:R3-1:R1$$$V2.0		49% isolated yield	
PEPTIDE1{[ac].T.F.T.A.D.V.K.N.P.P.D.I.V.G.K.T.S.Q.V.T.L.Y.V.F.E.K.C.[am]}|CHEM1{[MalCy5S3]}$PEPTIDE1,CHEM1,28:R3-1:R1$$$V2.0		29% isolated yield	

Source: article PMC8164657 (EJNMMI Research, 2021)
